Measurements reported in article PMC8467208.
No constants are given. Whether binding was seen depends on the method and setting. Binding seen in cells or lysates may run through a third protein. These calls come from enrichment with a bait or labelling near it, and not all partners need be listed. Tags and fused reporters may be left off the sequences shown.

By UniProt entry, the sequences of proteins in these tests, tags left out.
UniProt P48722: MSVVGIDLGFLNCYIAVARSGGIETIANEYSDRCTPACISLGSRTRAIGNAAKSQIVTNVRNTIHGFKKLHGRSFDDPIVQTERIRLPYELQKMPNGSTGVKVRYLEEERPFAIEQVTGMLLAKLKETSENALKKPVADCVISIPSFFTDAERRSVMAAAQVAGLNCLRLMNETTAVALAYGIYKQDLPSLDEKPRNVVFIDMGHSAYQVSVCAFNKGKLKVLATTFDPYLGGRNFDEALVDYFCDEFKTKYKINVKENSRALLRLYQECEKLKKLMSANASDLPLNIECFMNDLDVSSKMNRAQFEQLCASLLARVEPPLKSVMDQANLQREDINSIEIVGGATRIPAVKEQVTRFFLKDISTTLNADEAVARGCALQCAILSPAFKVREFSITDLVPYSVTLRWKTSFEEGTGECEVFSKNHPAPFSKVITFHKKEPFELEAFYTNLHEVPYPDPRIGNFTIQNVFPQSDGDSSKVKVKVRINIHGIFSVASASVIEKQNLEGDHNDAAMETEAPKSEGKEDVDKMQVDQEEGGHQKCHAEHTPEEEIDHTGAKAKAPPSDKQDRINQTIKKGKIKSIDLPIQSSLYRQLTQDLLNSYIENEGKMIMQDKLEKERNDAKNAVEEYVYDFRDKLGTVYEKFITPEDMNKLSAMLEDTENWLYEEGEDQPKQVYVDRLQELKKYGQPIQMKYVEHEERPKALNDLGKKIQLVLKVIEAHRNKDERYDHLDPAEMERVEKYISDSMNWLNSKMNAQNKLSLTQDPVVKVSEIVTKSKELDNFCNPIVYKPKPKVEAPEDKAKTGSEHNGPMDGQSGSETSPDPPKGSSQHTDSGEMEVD
UniProt Q9QZ05: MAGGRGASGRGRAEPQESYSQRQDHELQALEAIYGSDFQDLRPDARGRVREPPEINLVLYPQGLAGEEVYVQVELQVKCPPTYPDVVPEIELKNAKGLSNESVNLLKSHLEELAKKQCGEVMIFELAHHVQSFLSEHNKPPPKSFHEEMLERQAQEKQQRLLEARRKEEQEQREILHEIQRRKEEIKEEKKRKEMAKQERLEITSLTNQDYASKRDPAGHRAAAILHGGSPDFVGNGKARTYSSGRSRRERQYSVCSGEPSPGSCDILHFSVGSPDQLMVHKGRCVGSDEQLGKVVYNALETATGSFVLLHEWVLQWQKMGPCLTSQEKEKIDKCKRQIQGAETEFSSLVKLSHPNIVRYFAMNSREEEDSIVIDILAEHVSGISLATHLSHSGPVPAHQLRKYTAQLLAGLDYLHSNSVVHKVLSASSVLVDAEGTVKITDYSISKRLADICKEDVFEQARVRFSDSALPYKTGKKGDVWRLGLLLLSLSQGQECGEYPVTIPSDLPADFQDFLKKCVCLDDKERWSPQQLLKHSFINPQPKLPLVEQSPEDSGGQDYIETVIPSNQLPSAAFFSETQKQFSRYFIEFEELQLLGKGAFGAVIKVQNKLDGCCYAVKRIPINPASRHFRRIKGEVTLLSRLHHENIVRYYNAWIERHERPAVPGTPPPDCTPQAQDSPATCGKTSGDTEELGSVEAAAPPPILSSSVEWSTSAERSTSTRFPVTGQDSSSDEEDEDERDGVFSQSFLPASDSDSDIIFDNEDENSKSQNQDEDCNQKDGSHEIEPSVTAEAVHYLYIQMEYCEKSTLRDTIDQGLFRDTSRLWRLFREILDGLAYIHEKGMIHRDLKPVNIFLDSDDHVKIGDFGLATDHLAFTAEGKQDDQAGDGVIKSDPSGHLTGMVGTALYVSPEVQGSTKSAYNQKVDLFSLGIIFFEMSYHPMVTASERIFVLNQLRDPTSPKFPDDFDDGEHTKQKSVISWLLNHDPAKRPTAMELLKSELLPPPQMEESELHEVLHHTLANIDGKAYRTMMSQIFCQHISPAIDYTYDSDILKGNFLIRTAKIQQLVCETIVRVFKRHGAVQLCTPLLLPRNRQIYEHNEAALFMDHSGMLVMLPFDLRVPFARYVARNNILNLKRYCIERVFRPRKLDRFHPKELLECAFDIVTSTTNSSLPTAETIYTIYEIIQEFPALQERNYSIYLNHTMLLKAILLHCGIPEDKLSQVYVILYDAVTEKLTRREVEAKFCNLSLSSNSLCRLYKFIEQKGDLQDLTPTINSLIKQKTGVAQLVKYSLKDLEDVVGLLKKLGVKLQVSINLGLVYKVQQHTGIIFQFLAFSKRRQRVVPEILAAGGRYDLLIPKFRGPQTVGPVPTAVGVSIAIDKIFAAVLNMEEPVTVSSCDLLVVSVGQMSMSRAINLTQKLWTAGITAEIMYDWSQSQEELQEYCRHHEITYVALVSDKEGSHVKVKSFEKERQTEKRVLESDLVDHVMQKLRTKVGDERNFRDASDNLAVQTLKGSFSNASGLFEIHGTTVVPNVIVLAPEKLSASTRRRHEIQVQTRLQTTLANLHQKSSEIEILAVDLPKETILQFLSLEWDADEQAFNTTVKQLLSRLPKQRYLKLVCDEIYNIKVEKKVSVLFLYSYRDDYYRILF
UniProt Q6PGF7: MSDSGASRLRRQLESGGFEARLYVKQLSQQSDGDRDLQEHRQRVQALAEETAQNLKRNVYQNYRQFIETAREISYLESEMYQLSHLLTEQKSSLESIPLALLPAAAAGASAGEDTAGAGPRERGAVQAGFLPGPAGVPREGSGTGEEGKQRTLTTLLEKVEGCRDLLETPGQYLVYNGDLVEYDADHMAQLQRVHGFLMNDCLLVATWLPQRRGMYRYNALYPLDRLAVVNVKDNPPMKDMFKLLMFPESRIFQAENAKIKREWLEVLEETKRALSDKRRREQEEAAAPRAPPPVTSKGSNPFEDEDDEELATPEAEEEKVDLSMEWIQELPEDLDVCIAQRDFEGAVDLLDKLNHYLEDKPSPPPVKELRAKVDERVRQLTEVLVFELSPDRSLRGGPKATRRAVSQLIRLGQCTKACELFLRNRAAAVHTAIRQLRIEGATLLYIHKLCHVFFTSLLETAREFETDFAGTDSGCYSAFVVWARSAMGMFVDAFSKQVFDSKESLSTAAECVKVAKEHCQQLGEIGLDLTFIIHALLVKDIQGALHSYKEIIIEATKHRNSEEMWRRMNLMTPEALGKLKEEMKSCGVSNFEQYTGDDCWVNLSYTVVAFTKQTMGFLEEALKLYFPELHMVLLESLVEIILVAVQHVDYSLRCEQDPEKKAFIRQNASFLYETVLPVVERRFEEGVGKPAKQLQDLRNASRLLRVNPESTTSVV
UniProt P05213: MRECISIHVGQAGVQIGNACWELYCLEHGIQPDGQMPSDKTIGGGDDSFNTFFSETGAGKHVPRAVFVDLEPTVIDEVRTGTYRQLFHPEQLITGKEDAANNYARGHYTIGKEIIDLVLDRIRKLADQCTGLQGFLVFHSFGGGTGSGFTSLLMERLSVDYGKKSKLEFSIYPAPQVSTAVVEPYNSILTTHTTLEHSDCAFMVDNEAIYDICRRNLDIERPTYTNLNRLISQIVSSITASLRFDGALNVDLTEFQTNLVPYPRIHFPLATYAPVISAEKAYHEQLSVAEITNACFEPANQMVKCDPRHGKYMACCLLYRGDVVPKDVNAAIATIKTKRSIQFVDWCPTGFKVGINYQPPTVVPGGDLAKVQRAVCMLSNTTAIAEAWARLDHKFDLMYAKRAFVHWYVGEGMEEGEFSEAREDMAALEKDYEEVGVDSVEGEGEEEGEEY

T1: HA-tagged SLC38A9 (mouse) (UniProt Q8BGD6)
T1 sequence: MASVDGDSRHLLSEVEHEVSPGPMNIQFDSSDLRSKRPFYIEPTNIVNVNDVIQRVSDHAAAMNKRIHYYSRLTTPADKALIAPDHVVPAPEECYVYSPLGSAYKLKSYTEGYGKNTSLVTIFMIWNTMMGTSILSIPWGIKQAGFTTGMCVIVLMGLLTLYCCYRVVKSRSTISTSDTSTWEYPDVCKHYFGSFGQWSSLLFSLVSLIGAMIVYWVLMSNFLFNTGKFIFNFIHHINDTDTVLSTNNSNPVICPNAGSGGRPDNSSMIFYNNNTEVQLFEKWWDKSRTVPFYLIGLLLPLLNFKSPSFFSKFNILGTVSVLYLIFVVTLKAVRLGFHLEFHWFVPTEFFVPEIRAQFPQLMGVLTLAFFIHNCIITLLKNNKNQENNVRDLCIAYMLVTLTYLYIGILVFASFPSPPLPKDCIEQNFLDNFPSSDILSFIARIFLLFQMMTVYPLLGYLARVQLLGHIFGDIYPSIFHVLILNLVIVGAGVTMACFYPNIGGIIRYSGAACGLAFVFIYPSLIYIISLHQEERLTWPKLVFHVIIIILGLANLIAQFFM


Molecular target: T1, HA-tagged SLC38A9 (mouse)
Experiment: affinity purification with mass spectrometry; C2C12 cells transfected 48 h with HA-tagged SLC38A9 or empty pCMV-HA; anti-HA-Tag (3724) immunoprecipitation from lysate, 10% SDS-PAGE, Coomassie, differential bands cut, LC-MS/MS

| binding | Molecule |
| --- | --- |
| binds | GM17430 (mouse (endogenous in C2C12)) |
| binds | HSPA41 (from UniProt P48722 1-838) |
| binds | EIF2AK4 (from UniProt Q9QZ05 1-1648) |
| binds | AKT1S1 (from UniProt Q9D1F4 1-257) |
| binds | GM10073 (mouse (endogenous in C2C12)) |
| binds | EXOC8 (from UniProt Q6PGF7 1-716) |
| binds | TUBA1B (from UniProt P05213 1-451) |
| binds | TMOD3 (protein, UniProt Q9JHJ0 1-352) MALPFRKDLGDYKDLDEDELLGKLSESELKQLETVLDDLDPENALLPAGFRQKNQTSKSATGPFDRERLLSYLEKQALEHKDRDDYVPYTGEKKGKIFIPKQKPAQTLTEETISLDPELEEALTSASDTELCDLAAILGMHNLIADTPFCDVLGSSNGVNQERFPNVVKGEKILPVFDEPPNPTNVEESLKRIRENDARLVEVNLNNIKNIPIPTLKDFAKTLEANTHVKHFSLAATRSNDPVAVAFADMLKVNKTLKSLNMESNFITGAGVLALIDALRDNETLMELKIDNQRQQLGTSVELEMAKMLEENTNILKFGYQFTQQGPRTRAANAITKNNDLVRKRRIEGDHQ |
| binds | SHQ1 (protein, UniProt Q7TMX5 1-569) MLTPAFELTQDCDFLTVAIRVPHARASEFDVYFEGVDFKFYAKPYFLRLTLPGRIVENGSEQGTYDADKGIFTIRLPKETPGQHFEGLNMLTALLAPRKSRSAKPLVEEIGASGVAEEGADDEDEEFDWEIEQTPYEEVSESTLQSQCHYGFGNLRAGVVQRLQDELSEVIDIKDPDFTPVTERRQKRLAAELAKFDPDHYLADFFEDEAVEQILKYSPWWNDAHAEMVASLGKNQEQGDSAALVSFSEEEKYQLRKFVNKSYLLDKTAHRQVYYGLVDILLAYCYEVRVTEGEHSVESAWTIRKLSPTLCWFETWTDVHEILVSFGRRVLCYPLYRHFKLVLKAYRDTIKILQLGKSAVLKCLLDVHKVFQENDPAYILNDLYISDYCVWIQKAKSKKLAALTEALKAVSLSKAQLGLELPELEAAALLVQEEEGAGRAAQCNPSHQAPHSSPEPSDSDSTSSSGTEDSASEQEEPAGTQPSLLTSLQAPLLEEDSALIIRESGLCRNMASQGCEVSQGQPLASARAPLIEELGDALKMLRVSTPHGVSAGSHGSVEDAEERGQVPCD |
| binds | PA2G4 (protein, UniProt P50580 1-394) MSGEDEQQEQTIAEDLVVTKYKMGGDIANRVLRSLVEASSSGVSVLSLCEKGDAMIMEETGKIFKKEKEMKKGIAFPTSISVNNCVCHFSPLKSDQDYILKEGDLVKIDLGVHVDGFIANVAHTFVIGVAQGTQVTGRKADVIKAAHLCAEAALRLVKPGNQNTQVTEAWNKVAHSFNCTPIEGMLSHQLKQHVIDGEKTIIQNPTDQQKKDHEKAEFEVHEVYAVDVLVSSGEGKAKDAGQRTTIYKRDPSKQYGLKMKTSRAFFSEVERRFDAMPFTLRAFEDEKKARMGVVECAKHELLQPFNVLYEKEGEFVAQFKFTVLLMPNGPMRITSGPFEPDLYKSEMEVQDAELKALLQSSASRKTQKKKKKKASKTVENATSGETLEENGAGD |
| binds | DDX24 (protein, UniProt Q9ESV0 1-857) MKVKETNSKPKLASRGTFQRKGIKIVGKWKQVTIDPNLFADGQMDDLVCFEELTDYRLVKNPSRLFSSEETKKRKAQAVSEEEEEEEGQSSSPKKKIKLKKQRDAARAAEGAAAQNEYEVKASEPEAQGEVTACSDQKVGGAKSESLAQAAPRKKKNKGKKKLDTFQSTSPKLPKKSKKTWMAEVHDQKADVSAWRDLFVPKAVLRALSFLGFSAPTPIQALTLAPAIRDKLDILGAAETGSGKTLAFAIPMIHSVLQWHKMKAPPIPRSTGMPPREMRFGATAHLGSPCKDRTESGVLPEEARIETEAQPSDSGVQATPETSASASAQTLLVCDDDAGEGPSSLEEKPVPKQNEDGEEKFDAEQAGKLKQELCDQIAIYKVHPRRPLLGLVLTPTRELAIQVRQHIDAVAKFTGINTAILVGGMSTQKQQRMLNRHPEIVIATPGRLWELVKEKHPHLSNLRQLRCLVIDEADRMVEKGHFAELSQLLEMLNDSQYNPSRQTLVFSATLTLVHQAPARILHKKHVKKMDKTDKLDLLMQKVGMRGKPKVIDLTRNEGTVETLTETKIHCETDEKDLYLYYFLMQYPGRSLVFANSISCIKRLSGLLKVLDVMPLTLHACMHQKQRLRNLEQFARLQDCVLLATDVAARGLDIPKVQHVIHYQVPRTSEIYIHRSGRTARAASEGLSLMLIGPEDVINFKKIYKTLQKDEDIPLFPVQSKYMDVVKERIRLARQIEKAEYRNFQACLHNSWIEQAAAALEIELEEEMYKGGKADQQEERRRQKQMKMLKQELRHLLSQPLFQENLKTRYPTQSGRPPQPVLASRNIESALSCLSRQKRRRKKPKEPRAPPQPGSSTS |
| binds | SLC26A11 (protein, UniProt Q80ZD3 1-593) MAPDTCCCSATALRRRLPVLAWVPDYSLQWLRLDFIAGLSVGLTVIPQALAYAEVAGLPPQYGLYSAFMGCFVYFFLGTSRDVTLGPTAIMSLLVSFYTFREPAYAVLLAFLSGCIQLAMGLLHLGFLLDFISCPVIKGFTSAASITIGFGQIKNLLGLQKIPRQFFLQVYHTFLHIGETRVGDAVLGLASMLLLLVLKCMREHMPPPHPEMPLAVKFSRGLVWTVTTARNALVVSSAALIAYAFEVTGSHPFVLTGKIAEGLPPVRIPPFSVTRDNKTISFSEMVQDMGAGLAVVPLMGLLESIAVAKSFASQNNYRIDANQELLAIGLTNVLGSLVSSYPVTGSFGRTAVNAQTGVCTPAGGLVTGALVLLSLNYLTSLFSYIPKSALAAVIITAVTPLFDVKIFRSLWRVQRLDLLPLCVTFLLSFWEIQYGILAGSLVSLLILLHSVARPKTQVSEGQIFVLQPASGLYFPAIDALREAITNRALEASPPRSAVLECTHISSVDYTVIVGLGELLEDFQKKGVALAFVGLQVPVLRTLLAADLKGFRYFTTLEEAEKFLQQEPGTEPNSIHEDAVPEQRSSLLKSPSGP |
| binds | TMOD2 (protein, UniProt Q9JKK7 1-351) MALPFQKGLEKYKNIDEDELLGKLSEEELKQLENVLDDLDPESATLPAGFRQKDQTQKAATGPFDREHLLMYLEKEALEQKDREDFVPFTGEKKGRVFIPKEKPVETRKEEKVTLDPELEEALASASDTELYDLAAVLGVHNLLNNPKFDEETTNGEGRKGPVRNVVKGEKAKPVFEEPPNPTNVEASLQQMKANDPSLQEVNLNNIKNIPIPTLKEFAKSLETNTHVKKFSLAATRSNDPVALAFAEMLKVNKTLKSLNVESNFITGTGILALVEALRENDTLTEIKIDNQRQQLGTAVEMEIAQMLEENSRILKFGYQFTKQGPRTRVAAAITKNNDLVRKKRVEGDRR |
| binds | PUS71 (protein, UniProt Q8CE46 1-702) MAEDTDGGIRFNSLCFINDHVGFQGSIKTSPSDFIVIEIDEQGQLVSKATDGSLYEISKIQSEPSNSVKKPKLNIQNVSLEHKNSEGAADLPGCSDGDRSHQSDSEKENSVNSVTSKCEEESVDLLRSLLDEKTHTSLGQFACDIKRMWNSQTELTEPSPELSLGKILDKNRRAVLHSAVRQAFPFLITVGNQGEVVVKPNRECKELCRLVSEEEALGFFKYLDAKKENSKFTFKPDPNKDHRKAVHHFLNKKFGNLVETKSFPGQHHSAGNPDSAITVRFREKARGKRSHPEGCERGKAVYTAFTLQKENLETFEAIGLLAVKLGVIPSDFSYAGLKDKRAITYQSMVVKKVTPERLKSIKEEIEKKRMNVFNIRSVGDCLRLGQLKGNHFEIIIRHLRNQLNDSANLTERILEAIENVKNKGFVNYYGPQRFGKGQKIQTDQIGLALLKNEMVKAIKLFLTPEDVDDPVNKAKQYFLRTEDAKGTLSLMPEFRVRERALLESLHRFGVTEEGCVRAWFSFPHSMRIFYIHAYSSRIWNEAASYRLAAYGPKVVEGDLICSDEDADKHFPSSKVHLVTKEEESAHTYALHQVVLPVLGYNVQYPENQVGRWYQEALSRDGLQACRFRVPALKLNVPGCYRHIVKHPRNVSHRLVHPDPATEEARVEGPHSDDTASSLSLSFDLDASCYATVCLREMMKGDI |
